No constants are given. Whether binding was seen depends on the method and setting. Some entries that bind do so weakly or less than the wild type. Sequences can lack the tags named with a protein.
Molecular target: human LILRB1 expressed on stably transduced CHO cells (human) (UniProt Q8NHL6)
Test: flow cytometry, same method as FIG. 1B (CHO cells expressing human LILRB1)

Amino acid sequences for entries named in this document (tags omitted). Residues count along the entry.
UniProt Q8NHL6, residues 24-650: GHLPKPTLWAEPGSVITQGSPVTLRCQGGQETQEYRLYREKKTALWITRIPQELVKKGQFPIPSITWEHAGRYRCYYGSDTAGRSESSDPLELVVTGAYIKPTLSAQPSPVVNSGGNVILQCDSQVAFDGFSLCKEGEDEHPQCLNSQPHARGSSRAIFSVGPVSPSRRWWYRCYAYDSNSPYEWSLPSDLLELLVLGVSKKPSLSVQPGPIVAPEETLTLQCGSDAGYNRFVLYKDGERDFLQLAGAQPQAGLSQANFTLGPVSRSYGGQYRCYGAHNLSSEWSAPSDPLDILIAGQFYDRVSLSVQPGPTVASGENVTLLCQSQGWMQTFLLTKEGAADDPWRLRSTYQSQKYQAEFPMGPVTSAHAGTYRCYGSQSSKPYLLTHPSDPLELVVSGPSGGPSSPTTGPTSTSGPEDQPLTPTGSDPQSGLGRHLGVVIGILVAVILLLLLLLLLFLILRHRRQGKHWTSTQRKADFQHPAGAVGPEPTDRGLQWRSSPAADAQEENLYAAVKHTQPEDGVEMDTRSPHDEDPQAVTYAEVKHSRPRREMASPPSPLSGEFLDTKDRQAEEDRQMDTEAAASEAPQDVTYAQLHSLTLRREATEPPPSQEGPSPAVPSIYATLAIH

- binding: binds
B1: BF9 humanized antagonist antibody of Family AB2 (antibody, V domains shown)
VH: QVQLVESGGGLVKPGGSLRLSCAASGFTFDSYGMHWIRQAPGKGLEWVAYISSGSSTSYYADTVKGRFTISRDDAKNSLYLQMNSLRAEDTAVYYCARPGSNWDVYYAMDYWGQGTLVTVSS
VL: DIVLTQSPDSLAVSLGERATINCRASQSVSTSSYSYMHWYQQKPGQPPKLLIKNASNLESGVPDRFSGSGSGTDFTLTISSLQAEDVAVYYCQHSWEIPFTFGPGTKVDIK
